This is one part of the list. Further columns of the screen follow, without active or inactive calls. Compounds called inactive in the main read-out are mostly missing here. The note in brackets gives the kind of curve behind each potency; many fits are weak.
Assay: qHTS Assay for Lipid Storage Modulators in Drosophila S3 Cells;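 as to cell number change: cells counted by Cell Tracker Red CMTPX staining in the red channel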
Details: BODIPY lipid droplet fluorescence, 18-24 h; for cell number change: measured here: cell count max response, cells fed with added oleic acid
Outline: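 Drosophila S3 cells loaded with oleic acid (400 uM, as added) and compounds at several concentrations; lipid droplets imaged by 488-nm laser-scanning cytometry, 500–530 nm intensity and object ratio to cell channel. Percent activity normalized to 20 uM Triacsin C.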

[1] = measured here: lipid fluorescence (Fed channel) AC50, cells fed with added oleic acid
[2] = measured here: cell number channel AC50, cells fed with added oleic acid

| Compound | cell number change [%] | AC50 [1] | AC50 [2] |
| --- | --- | --- | --- |
| O=C(CSc1nnc2ccccn12)NCc1ccc2c(c1)OCO2 | -25.3 | 6.51 µM [falling, single point] | – |
| COc1cc(-c2nc(S(=O)(=O)c3ccccc3)c(N3CCOCC3)o2)cc(OC)c1OC | -75.2 | 2.31 µM [rising, partial curve] | 25.9 µM [falling, partial curve, poor fit] |
| COc1ccc(CN2CCCC(C(=O)N3CCCCC3)C2)c(OC)c1 (stereo not given) | – | 29.1 µM [falling, single point] | – |
| CCC(SCC(=O)OC)C(=O)Nc1nnc(C(C)C)s1 (stereo not given) | 2.91 | 0.00461 µM [falling, full curve, poor fit] | – |
| Cc1ccc(NC(=O)C2CCCN(S(=O)(=O)c3ccc4[nH]c(=O)ccc4c3)C2)nc1 (stereo not given) | -11.5 | 29.1 µM [rising, single point] | – |
| Brc1cnc(N2CCCC2)nc1N1CCOCC1 | 1.96 | 1.84 µM [rising, full curve] | – |
| COC(=O)c1ccc(NC(=O)CCOc2ccccc2)cc1 | 15.9 | 29.1 µM [falling, partial curve] | – |
| COc1ccc(C(O)P(=O)(OC(C)C)OC(C)C)c(OC)c1 (stereo not given) | 0.25 | 29.1 µM [falling, single point] | – |
| Cc1cccc(Nc2nc(N)nc(-c3oc4ccccc4c3C)n2)c1 | -34 | 32.6 µM [falling, single point] | 29.1 µM [falling, single point] |
| Cc1[nH]n(C(N)=S)c(=O)c1N=Nc1ccc([N+](=O)[O-])cc1Cl | -71.5 | 2.06 µM [rising, partial curve] | 25.9 µM [falling, partial curve] |
| COc1cccc(-c2noc(Cn3nc(C)c([N+](=O)[O-])c3C)n2)c1 | 25 | 18.4 µM [rising, single point] | – |
| Cc1ccc(N=Nc2c(N)[nH]n3c(=O)cc(-c4ccccc4)nc23)cc1 | – | 0.92 µM [falling, full curve, poor fit] | – |
| Cc1noc(C)c1C(=O)Nc1nccs1 | 43 | – | 25.9 µM [rising, single point] |
| Cc1c(NC(=O)COC(=O)C23CC4CC(CC(Br)(C4)C2)C3)c(=O)n(-c2ccccc2)n1C | -25 | 0.058 µM [falling, full curve] | 1.16 µM [falling, full curve, poor fit] |
| Cc1cc(N2CCN(c3ccccc3)CC2)n2c(n1)nc1ccccc12 | -7.3 | – | – |
| C=CCSc1n[nH]c(=O)n1-c1cccc(C(F)(F)F)c1 | 15.5 | 0.00461 µM [rising, full curve, poor fit] | – |
| Cc1ccc(S(=O)(=O)NCC(=O)NCC(=O)N2CCN(c3ncccn3)CC2)cc1C | 16.8 | – | 6.51 µM [rising, single point] |
| O=C(Nc1cccc(-c2nc3ccccc3[nH]2)c1)c1cccc(NC(=O)c2ccco2)c1 | -60.6 | 2.06 µM [rising, partial curve] | 1.84 µM [rising, partial curve] |
| O=S(=O)(NCCc1csc(-c2ccccc2)n1)c1cccnc1 | – | 3.66 µM [rising, full curve] | 3.26 µM [rising, single point] |

A different layout for part of the listing above.
Compound	cell number change [%]	AC50 [1]	AC50 [2]
COC(=O)c1ccc(NC(=O)CCOc2ccccc2)cc1	15.9	29.1 µM [falling, partial curve]	–
COc1ccc(C(O)P(=O)(OC(C)C)OC(C)C)c(OC)c1 (stereo not given)	0.25	29.1 µM [falling, single point]	–
Cc1cccc(Nc2nc(N)nc(-c3oc4ccccc4c3C)n2)c1	-34	32.6 µM [falling, single point]	29.1 µM [falling, single point]

Later entries.

| Compound | cell number change [%] | AC50 [1] | AC50 [2] |
| --- | --- | --- | --- |
| CC(C)CC(=O)N=C1SC2CS(=O)(=O)CC2N1Cc1ccccc1 (stereo not given) | 6.19 | 9.2 µM [rising, partial curve] | – |
| CCOC(=O)C1=C(C)NC(C)=C(C(=O)OCC)C1c1ccc(OC)cc1 | -0.856 | 0.58 µM [rising, partial curve, poor fit] | 1.03 µM [rising, full curve, poor fit] |
| CCC1CCCCN1CCCNC(=O)c1ccc2c(c1)c(C)c(C)n2C (stereo not given) | 46 | 29.1 µM [rising, single point] | 29.1 µM [rising, single point] |
| CCOc1ccc(N(Cc2ccc(C(=O)O)cc2)S(=O)(=O)c2ccc(C)cc2)cc1 | -8.99 | 6.51 µM [rising, single point] | – |
| COc1ccc(OC)c(-n2c(SCC(=O)Nc3cc(C)on3)nnc2-c2c[nH]c3ccccc23)c1 | -32.3 | 23.1 µM [rising, single point] | 10.3 µM [falling, single point] |
| COc1ccc2c(Cl)c(C(=O)NCc3ccco3)sc2c1 | 150 | 2.31 µM [rising, full curve] | 5.8 µM [rising, partial curve] |
| CCn1cc(C(=O)NCC(=O)NC(C)(C)CO)c(=O)c2cc3c(cc21)OCO3 | 6.31 | 7.31 µM [falling, single point] | – |
| COc1ccc(C(C)=O)cc1COC(=O)c1cccnc1SC | 17.6 | 0.731 µM [rising, single point] | – |
| Cc1cc(SCC(=O)OCC(=O)N(C)C2CCS(=O)(=O)C2)c(C)cc1Br (stereo not given) | 25 | – | 0.58 µM [rising, full curve, poor fit] |
| C=CCNC(=O)/C(C#N)=C/c1ccccc1Cl | -12 | 25.1 µM [falling, partial curve] | – |
| O=C(Nc1cccc(-n2cnnn2)c1)c1ccccc1Br | -16.5 | 29.1 µM [falling, single point] | – |
| CCCOc1ccc(-c2c(=O)n(O)c3ccccc3[n+]2[O-])cc1 | -14.6 | 29.1 µM [falling, single point] | – |
| CCOc1ccc(NC(=O)C/C(C)=N/NC(=O)Cc2cccs2)cc1 | 16.7 | 0.116 µM [rising, single point] | – |
| COc1cc(S(=O)(=O)N2CCCN(C)CC2)ccc1NC(C)=O | 35.9 | – | – |
| N#Cc1cnn(Cc2ccccc2)c1/N=C/N1CCOCC1 | – | – | 6.51 µM [rising, single point] |
| O=C(COc1cccc(Cl)c1)Nc1ccccc1N1CCCCC1 | – | 0.231 µM [falling, full curve] | – |
| O=C(NCc1ccc(Cl)cc1)C1CCC(CNc2c(N3CCOCC3)c(=O)c2=O)CC1 (stereo not given) | -0.815 | – | – |
| CN(C)C(=O)c1ccc(NC(=O)c2cc(-c3ccco3)nc3ccccc23)cc1 | 15.7 | 18.4 µM [rising, single point] | – |
| Cc1ccc(NC(=O)CSC(N)=O)cc1Cl | -16.9 | 0.13 µM [falling, full curve, poor fit] | – |

| Compound | cell number change [%] | AC50 [1] | AC50 [2] |
| --- | --- | --- | --- |
| O=C(CSCc1ccc([N+](=O)[O-])cc1)NCCSCc1ccccc1 | -18.6 | 20.6 µM [falling, partial curve] | – |
| Cc1cc(C(=O)N2CCCC2)n[nH]1 | -16.6 | 0.13 µM [rising, full curve, poor fit] | – |
| O=C(NC1CCN(Cc2ccccc2)CC1)C1CCN(S(=O)(=O)c2cccc([N+](=O)[O-])c2)CC1 | 13.2 | 1.64 µM [rising, full curve, poor fit] | – |
| CCOC(=O)N1CCN(Cc2cc(Cl)c3cccnc3c2O)CC1 | -10.5 | 29.1 µM [falling, single point] | – |
| C=CCN(C(=O)c1csnn1)C(C(=O)NCc1ccc(F)cc1)c1ccccc1F (stereo not given) | -17.1 | 6.51 µM [falling, partial curve, poor fit] | – |
| CCCCc1ccc(NC(=O)c2ccc(NS(C)(=O)=O)cc2)cc1 | -38.5 | 23.1 µM [falling, partial curve] | 29.1 µM [falling, single point] |
| Cc1ccc(NC(=O)C2CCN(S(=O)(=O)c3ccc4c(c3)OCCO4)CC2)nc1 | – | 0.58 µM [rising, single point] | – |
| CCOC(=O)C1=C(CS(=O)(=O)c2ccc(C)cc2)NC(=O)NC1c1cc(OC)c(O)c(OC)c1 (stereo not given) | 0.298 | – | – |
| CC1(c2cc([N+](=O)[O-])cc([N+](=O)[O-])c2)CC(C)(C)N(C(=O)c2ccccc2)c2ccccc21 (stereo not given) | -12.2 | 13 µM [falling, partial curve] | – |
| COc1cccc(OCC(=O)NNC(=O)c2cccs2)c1 | 20.7 | 0.92 µM [rising, full curve, poor fit] | – |
| COC(=O)CC1COc2ccccc2N1C(=O)c1ccc(Cl)cc1 (stereo not given) | 35.6 | 8.2 µM [rising, partial curve, poor fit] | 18.4 µM [rising, single point] |
| Cc1noc(NS(=O)(=O)c2ccc(NC(=O)/C=C/c3ccc(C(C)C)cc3)cc2)c1C | – | 6.51 µM [rising, partial curve] | – |
| O=C(ONC1=NCCCCC1)c1c(F)cccc1F | -62.8 | 29.1 µM [falling, single point] | 13 µM [falling, partial curve, poor fit] |
| CC(C)c1ccc(OCC(=O)N2CCCCCC2)c(Br)c1 | -18 | 2.06 µM [falling, partial curve, poor fit] | – |
| CC(=O)c1c(O)cc(=O)n(-c2ccccc2)c1-c1ccc(Cl)cc1 | – | 0.731 µM [falling, single point] | – |
| COc1ccccc1/C=C/C=N/n1c(C2CCCCC2)n[nH]c1=S | -55.8 | – | 29.1 µM [falling, single point] |
| COc1ccccc1N=Nc1[nH]c2ccc(C)cc2c1O | -29.2 | 25.9 µM [falling, partial curve] | – |
| Cc1sc2ncnc(N3CCC(C)CC3)c2c1C | -30.9 | 10.3 µM [falling, partial curve] | 14.6 µM [falling, partial curve] |
| CCCN1CCN(CCCNC(=O)c2ccc3c(Cl)c4c(nc3c2)CCCC4)CC1 | – | 6.51 µM [rising, single point] | – |

Reference: PubChem BioAssay AID2685 (National Center for Advancing Translational Sciences (NCATS), 2010)
